According to PubChem BioAssay AID720519 (National Center for Advancing Translational Sciences (NCATS), 2013):
Inconclusive means that the source gave no clear call. Such entries were picked first, then a sample of the others. Potencies of inconclusive entries are doubtful fits and often do not repeat. Activity calls are given as the source filed them. The call rests on the fitted dose curve; in most records, active means well fitted activation curve with a large enough effect; inconclusive means small, poorly fitted or top-dose-only effect; inactive means flat fitted curve, though single readings scatter.

assay: qHTS for Inhibitors of Cell Surface uPA Generation: Confirmatory Assay for Cherry-picked Compounds; details: cell surface uPA activity generation, qHTS confirmation; series mostly up to 115 µM
Text: The overall objective of this project is to perform a quantitative high throughput screen (qHTS) to identify novel compounds that inhibit the generation of cell surface urokinase activity. The urokinase plasminogen activator (uPA) is one of the two primary endogenous systems that mediate plasminogen activation into plasmin. Members of this system, including uPA and its receptor (uPAR), are overexpressed in several malignant tumors. This system plays a major role in adhesion, migration, invasion and metastasis of cancer cells. Small molecule inhibitors of the uPA system will serve as probes to understand the molecular mechanisms of the uPA cascade and better understanding the micro-environmental circumstances that facilitate the activation of plasminogen by uPA, and finally may provide novel candidate agents for anticancer drug therapy.
[…] […] Upon inhibition of the uPA activation cascade, the subsequent cell surface uPA activity-dependent translocation of LF into the cytoplasm is inhibited. ATP-Lite is used to measure intracellular ATP concentrations (measure cell viability) which remain increased if LF entry into the cytoplasm is inhibited. This validation assay was performed using a small set of cherry picked compounds. Activation of cell viability (increase in luminescence signal) due to inhibition of the cell surface uPA generation is the desired outcome of this assay.
NIH Chemical Genomics Center [NCGC]
NIH Molecular Libraries Probe Centers Network [MLPCN]
Assay Submitter (PI): Thomas Bugge, National Institute of Dental and Craniofacial Research, NIH
Cultured RAW 264.7 were dispensed into 1536-well clear bottom, white walled tissue culture plates at a density of 4000 cells/well and were incubated overnight (12-16 h) at 37 C in a 5% CO2 incubator. Serially diluted compounds (1:5 dilution) in 23 nl DMSO were added to cells (0.0024 uM to 3.83 uM final concentration). […] Compound and reagent-treated plates were incubated for 24 h at 37 C in a 5% CO2 incubator. Three microliter of PerkinElmer ATPlite was then added to each well and luminescence was detected using the PerkinElmer ViewLux plate reader for a 5 sec exposure.
Potency means the concentration at half of the fitted maximal effect.

Compound	Potency
O=C1NC(=S)S/C1=C\C=C\c1ccc([N+](=O)[O-])o1	inconclusive: 58.5 µM [activator, full curve, poor fit]
Cc1cccc(/C=N/Nc2cc(N3CCOCC3)nc(N3CCOCC3)n2)c1	inconclusive: 0.0927 µM [activator, partial curve]
O=C1C=CC(O)(c2cc(=O)c3c(O)cc(O)cc3o2)C=C1	inconclusive: 23.3 µM [activator, single point]
C=CC(=O)N1C/C(=C/c2ccccc2)C(=O)/C(=C\c2ccccc2)C1	active: 26.1 µM
NC(=O)CC(NC(=O)Cc1cccc2ccccc12)c1ccc(N2CCC(Cc3ccccc3)CC2)c([N+](=O)[O-])c1 (stereo not given)	inconclusive: 11.7 µM [activator, partial curve]
CC1(C)CC2(CC(c3ccccc3)Oc3cc(O)ccc32)NC(=S)N1 (stereo not given)	inactive
CC(Sc1nnc2ccccn12)C(=O)NCc1ccc2c(c1)OCO2 (stereo not given)	inactive
COc1ccc(CCNC(=O)c2c([S-])n(-c3ccc(C)cc3)c3cccc[n+]23)cc1	inconclusive: 11.7 µM [activator, full curve]
CCOC(=O)c1ccccc1N=Cc1c(O)c2ccccc2oc1=O	inactive
CCOc1ccc(/C=N/NC(=S)Nc2c(C)cccc2C)cc1	inconclusive: 14.7 µM [activator, partial curve]
CCN(CC)CC(=O)Nc1sc2c(c1C(=O)c1ccccc1OC)CCC2	active: 10.4 µM
CCN(CC)c1c([N+](=O)[O-])c(=O)sc2ccccc12	inactive
S=C(Nc1ccccc1Cl)N1CCCC(c2ccccc2)=N1	active: 13.1 µM
O=C1C=CC2(C=C1)O[C@H](Cc1ccccc1)[C@@H](Cc1ccccc1)O2	inconclusive: 29.3 µM [activator, single point]
C/C(=N\NC(=S)Nc1c(C)cccc1C)c1ccc(OC(F)F)cc1	inconclusive: 14.7 µM [activator, partial curve]
Cc1ccc2oc(=O)c3cnn(CC(=O)Nc4ccccc4N4CCN(C)CC4)c3c2c1	active: 9.27 µM
CCOCCOc1cc(NCc2ccccc2)c2ncn(C(C)C)c2c1	inactive
Cc1ccc2nc(-c3ccncc3)cc(C(=O)NCCc3ccc(F)cc3)c2c1	inconclusive: 14.7 µM [activator, partial curve, poor fit]
C[C@H]1CN([C@@H](C)CO)C(=O)c2cccc(NC(=O)c3cnccn3)c2O[C@@H]1CN(C)S(=O)(=O)c1ccc(F)cc1	inconclusive: 36.9 µM [activator, full curve]
O=C1CC(SC(=Nc2ccccc2)Nc2ccccc2)C(=O)N1c1cccc(Cl)c1 (stereo not given)	inconclusive: 20.7 µM [activator, full curve]

Compound	Potency
CCCCN(C(=O)c1cnccn1)c1c(N)n(CCC)c(=O)[nH]c1=O	inconclusive: 0.0656 µM [activator, full curve]
CC(C)C(NC(=O)Cc1ccccc1)C(=O)N1CCN(c2cccc(Cl)c2)CC1 (stereo not given)	inactive
C=C1C(=O)OC2C=C(CO)C3OC3C3OC3(C)CC(OC(=O)/C(=C/C)COC(C)=O)C12 (stereo not given)	inconclusive: 52.1 µM [activator, partial curve]
Cc1ccc(C2=NS(=O)(=O)N(C)C(C(=O)NC3CCCC3)=C2)cc1	inactive
N#C/C(N=Nc1ccccc1O)=N\Nc1ccccc1O	inactive
CCOc1ccc(C(=O)NCCO)cc1	inactive
NC(=O)CC(NC(=O)Cc1cccc2ccccc12)c1ccc(N2CCN(c3ccc(F)cc3)CC2)c([N+](=O)[O-])c1 (stereo not given)	inconclusive: 23.3 µM [activator, single point]
N#CCC(=O)N/N=C/c1ccc(OCC(=O)Nc2ccc(F)cc2)cc1	inactive
S=C(Nc1ccccc1Oc1ccccc1)NC1CCCC1	inactive
COc1cccc(CC(=O)n2nc(N)c3cc4ccc(OC)cc4nc32)c1	inconclusive: 1.85 µM [activator, full curve]
CN(C)c1cccc(Oc2nc3c(c(=O)n(C)c(=O)n3C)n2C)c1	inconclusive: 18.5 µM [activator, full curve]
COC(=O)c1ccccc1NC(=O)Nc1nnc(N2CCCCC2C)s1 (stereo not given)	inconclusive: 58.5 µM [activator, partial curve]
C=C(C)c1cccc(C(C)(C)NC(=O)Nc2cc(C)ccn2)c1	inconclusive: 23.3 µM [activator, partial curve]
COc1cc2c(OC(C)=O)c3c(c(-c4ccc5c(c4)OCO5)c2cc1OC)C(=O)OC3	active: 2.33 µM
CN(C)S(=O)(=O)c1cccc(NC(=O)CSc2nc3ccccc3n2-c2ccccc2)c1	inconclusive: 14.7 µM [activator, full curve]
CCOCCCn1c(SCC(=O)Nc2oc(C)c3c(C)n[nH]c(=O)c23)nc2ccccc2c1=O	inactive
CC1=CC(C)(C)N2C(=O)C3(NCCc4c3[nH]c3ccccc43)c3cc(C)cc1c32 (stereo not given)	active: 2.33 µM
COc1ccc(/C=N/Nc2cc(N3CCCC3)nc(N3CCCC3)n2)cc1	inconclusive: 2.93 µM [activator, full curve, poor fit]
CC1(C)CC(=O)C([N+](=O)[O-])=C(NCCCC(=O)O)C1	inactive
COc1ccc(NS(=O)(=O)c2cc(NS(=O)(=O)c3cc(C(=O)O)ccc3OC)ccc2C)cc1	inactive

Some of the entries above in another layout.
Compound | Potency
COC(=O)c1ccccc1NC(=O)Nc1nnc(N2CCCCC2C)s1 (stereo not given) | inconclusive: 58.5 µM [activator, partial curve]
C=C(C)c1cccc(C(C)(C)NC(=O)Nc2cc(C)ccn2)c1 | inconclusive: 23.3 µM [activator, partial curve]
